PubChem BioAssay AID1224827, NIAID | 2016
Purpose: 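Confirm genes whose knock-down changes LPS-driven TNF promoter activity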 (follow-up of hits). System: RAW264.7 G9 mouse macrophage reporter clone. Reagents: single siRNA against mouse genes, 100 nM siRNA. Duration: siRNA for 2 days, then LPS about 16 h. Treatment: bacterial lipopolysaccharide (LPS), 10 ng/ml, cells fixed after overnight (about 16 h) stimulation. Read-out: 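TNF promoter reporter red fluorescence in nuclei, background subtracted, normalised per plate and to non-targeting control siRNA, as z-scores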. Reading the numbers: TNF reporter z-score, mean: higher = stronger Tnf promoter reporter signal. Active means: 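An siRNA is called active when its mean z-score over replicates is at least +2 or at most -2; control wells get no call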.
The deposit covers about 3,800 reagents; this is a part drawn at random. About 2,200 of all reagents (57%) count as active. 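Active means a strong reporter change in either direction; calls are per siRNA, not per gene; qiagen siRNAs gave weaker effects.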 The numbers tell different reagents against one gene apart. Further read-outs or replicates are left out here.

TNF reporter z-score, mean, by target and reagent
Ca5a (carbonic anhydrase 5A): #1 0.134 inactive; #2 -1.87 inactive; #3 -4.26 active; #4 4.12 active; #5 2.59 active; #6 -0.154 inactive
Hoxd3 (homeobox D3): #1 -1.89 inactive; #2 -4.64 active; #3 -5.46 active; #4 2.64 active; #5 1.04 inactive; #6 1.25 inactive
H2ac25 (H2A clustered histone 25): #1 1.88 inactive; #2 1.54 inactive; #3 -0.29 inactive; #4 1.8 inactive; #5 -0.0799 inactive; #6 -2.41 active
Csf2ra: #1 -0.72 inactive; #2 -1.06 inactive; #3 -1.59 inactive; #4 2.12 active; #5 -0.749 inactive; #6 -0.614 inactive
Grb2 (growth factor receptor bound protein 2): #1 3.14 active; #2 -3.64 active; #3 -4.04 active; #4 0.685 inactive; #5 -0.0371 inactive; #6 -0.844 inactive

Laid out differently: results already given
target | siRNA no. | TNF reporter z-score, mean | Call
Hoxd3 (homeobox D3) | 4 | 2.64 | active
Hoxd3 (homeobox D3) | 5 | 1.04 | inactive
Hoxd3 (homeobox D3) | 6 | 1.25 | inactive
H2ac25 (H2A clustered histone 25) | 1 | 1.88 | inactive
H2ac25 (H2A clustered histone 25) | 2 | 1.54 | inactive
H2ac25 (H2A clustered histone 25) | 3 | -0.29 | inactive
H2ac25 (H2A clustered histone 25) | 4 | 1.8 | inactive
H2ac25 (H2A clustered histone 25) | 5 | -0.0799 | inactive
H2ac25 (H2A clustered histone 25) | 6 | -2.41 | active

Next records follow.
TNF reporter z-score, mean, by target and reagent
Gclm (glutamate-cysteine ligase, modifier subunit): #1 6.55 active; #2 -1.72 inactive; #3 -2.31 active; #4 -1.91 inactive; #5 -2.76 active; #6 -4.58 active
Skint7 (selection and upkeep of intraepithelial T cells 7): #1 10.7 active; #2 -3 active; #3 -3.21 active; #4 1.53 inactive; #5 0.746 inactive; #6 -3.98 active
Idh3g (isocitrate dehydrogenase 3 (NAD+), gamma): #1 0.401 inactive; #2 -4.37 active; #3 -4.7 active; #4 -0.145 inactive; #5 -0.114 inactive; #6 -3.9 active
Zeb2 (zinc finger E-box binding homeobox 2): #1 -2.59 active; #2 -3.64 active; #3 -6.12 active; #4 -0.992 inactive; #5 -2.42 active; #6 -2.79 active
Fgf2 (fibroblast growth factor 2): #1 -2.43 active; #2 -4.74 active; #3 -4.91 active; #4 5.13 active; #5 2.3 active; #6 0.449 inactive
